In paper PMC4525167:
These are yes or no findings as the source states them, for the method shown. In cells and extracts the contact can be indirect. Some binding calls cover weakened binding; strength is not graded here.

Protein sequences, listed by entry. Tags and fused reporters are not part of them.
UniProt P01106: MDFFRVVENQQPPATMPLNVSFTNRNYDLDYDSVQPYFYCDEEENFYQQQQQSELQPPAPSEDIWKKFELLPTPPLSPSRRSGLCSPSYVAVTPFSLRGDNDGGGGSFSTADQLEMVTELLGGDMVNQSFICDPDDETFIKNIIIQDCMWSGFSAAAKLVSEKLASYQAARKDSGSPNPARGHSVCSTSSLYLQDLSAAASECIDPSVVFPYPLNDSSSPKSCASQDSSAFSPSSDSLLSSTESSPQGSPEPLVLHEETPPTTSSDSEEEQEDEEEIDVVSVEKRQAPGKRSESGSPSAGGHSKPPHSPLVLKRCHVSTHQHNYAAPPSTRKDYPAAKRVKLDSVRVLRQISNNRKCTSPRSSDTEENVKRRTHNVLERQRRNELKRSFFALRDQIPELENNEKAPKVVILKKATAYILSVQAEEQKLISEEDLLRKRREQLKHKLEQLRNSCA
UniProt Q8TEK3: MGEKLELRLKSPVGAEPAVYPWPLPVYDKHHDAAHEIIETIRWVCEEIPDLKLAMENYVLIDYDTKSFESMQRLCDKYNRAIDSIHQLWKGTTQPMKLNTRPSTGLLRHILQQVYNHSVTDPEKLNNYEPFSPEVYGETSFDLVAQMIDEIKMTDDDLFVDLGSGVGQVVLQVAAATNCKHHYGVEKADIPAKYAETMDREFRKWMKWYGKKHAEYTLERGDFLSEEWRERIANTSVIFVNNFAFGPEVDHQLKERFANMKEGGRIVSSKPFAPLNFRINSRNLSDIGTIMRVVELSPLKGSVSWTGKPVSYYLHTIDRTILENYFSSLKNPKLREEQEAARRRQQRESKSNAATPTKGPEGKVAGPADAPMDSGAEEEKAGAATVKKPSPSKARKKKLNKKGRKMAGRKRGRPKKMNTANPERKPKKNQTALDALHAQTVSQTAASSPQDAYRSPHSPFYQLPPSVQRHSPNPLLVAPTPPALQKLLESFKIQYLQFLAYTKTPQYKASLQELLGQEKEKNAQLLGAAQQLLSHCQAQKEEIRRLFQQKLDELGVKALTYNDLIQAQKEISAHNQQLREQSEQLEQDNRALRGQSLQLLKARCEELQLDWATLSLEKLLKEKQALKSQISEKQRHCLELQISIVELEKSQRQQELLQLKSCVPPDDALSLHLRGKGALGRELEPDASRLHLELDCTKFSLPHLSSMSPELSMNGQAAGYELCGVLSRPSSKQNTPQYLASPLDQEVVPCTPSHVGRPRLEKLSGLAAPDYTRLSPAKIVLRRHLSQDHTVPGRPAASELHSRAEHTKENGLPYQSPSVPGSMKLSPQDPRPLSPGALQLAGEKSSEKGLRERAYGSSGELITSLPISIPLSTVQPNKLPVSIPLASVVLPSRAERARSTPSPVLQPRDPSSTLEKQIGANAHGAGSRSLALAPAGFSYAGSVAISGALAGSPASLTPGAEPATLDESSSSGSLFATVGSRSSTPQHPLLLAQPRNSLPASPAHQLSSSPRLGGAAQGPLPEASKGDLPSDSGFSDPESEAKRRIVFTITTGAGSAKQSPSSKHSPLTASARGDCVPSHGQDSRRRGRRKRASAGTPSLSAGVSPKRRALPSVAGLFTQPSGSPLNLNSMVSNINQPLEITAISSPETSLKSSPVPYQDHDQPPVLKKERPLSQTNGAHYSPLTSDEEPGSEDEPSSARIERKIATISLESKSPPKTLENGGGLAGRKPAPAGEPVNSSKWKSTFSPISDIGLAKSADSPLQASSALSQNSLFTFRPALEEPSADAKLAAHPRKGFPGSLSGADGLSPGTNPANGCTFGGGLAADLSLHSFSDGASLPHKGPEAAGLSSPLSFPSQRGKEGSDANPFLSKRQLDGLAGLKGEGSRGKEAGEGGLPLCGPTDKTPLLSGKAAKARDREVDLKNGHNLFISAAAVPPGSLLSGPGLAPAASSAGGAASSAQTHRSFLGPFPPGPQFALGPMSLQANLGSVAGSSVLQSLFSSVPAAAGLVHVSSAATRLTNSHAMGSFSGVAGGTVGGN
UniProt Q09472: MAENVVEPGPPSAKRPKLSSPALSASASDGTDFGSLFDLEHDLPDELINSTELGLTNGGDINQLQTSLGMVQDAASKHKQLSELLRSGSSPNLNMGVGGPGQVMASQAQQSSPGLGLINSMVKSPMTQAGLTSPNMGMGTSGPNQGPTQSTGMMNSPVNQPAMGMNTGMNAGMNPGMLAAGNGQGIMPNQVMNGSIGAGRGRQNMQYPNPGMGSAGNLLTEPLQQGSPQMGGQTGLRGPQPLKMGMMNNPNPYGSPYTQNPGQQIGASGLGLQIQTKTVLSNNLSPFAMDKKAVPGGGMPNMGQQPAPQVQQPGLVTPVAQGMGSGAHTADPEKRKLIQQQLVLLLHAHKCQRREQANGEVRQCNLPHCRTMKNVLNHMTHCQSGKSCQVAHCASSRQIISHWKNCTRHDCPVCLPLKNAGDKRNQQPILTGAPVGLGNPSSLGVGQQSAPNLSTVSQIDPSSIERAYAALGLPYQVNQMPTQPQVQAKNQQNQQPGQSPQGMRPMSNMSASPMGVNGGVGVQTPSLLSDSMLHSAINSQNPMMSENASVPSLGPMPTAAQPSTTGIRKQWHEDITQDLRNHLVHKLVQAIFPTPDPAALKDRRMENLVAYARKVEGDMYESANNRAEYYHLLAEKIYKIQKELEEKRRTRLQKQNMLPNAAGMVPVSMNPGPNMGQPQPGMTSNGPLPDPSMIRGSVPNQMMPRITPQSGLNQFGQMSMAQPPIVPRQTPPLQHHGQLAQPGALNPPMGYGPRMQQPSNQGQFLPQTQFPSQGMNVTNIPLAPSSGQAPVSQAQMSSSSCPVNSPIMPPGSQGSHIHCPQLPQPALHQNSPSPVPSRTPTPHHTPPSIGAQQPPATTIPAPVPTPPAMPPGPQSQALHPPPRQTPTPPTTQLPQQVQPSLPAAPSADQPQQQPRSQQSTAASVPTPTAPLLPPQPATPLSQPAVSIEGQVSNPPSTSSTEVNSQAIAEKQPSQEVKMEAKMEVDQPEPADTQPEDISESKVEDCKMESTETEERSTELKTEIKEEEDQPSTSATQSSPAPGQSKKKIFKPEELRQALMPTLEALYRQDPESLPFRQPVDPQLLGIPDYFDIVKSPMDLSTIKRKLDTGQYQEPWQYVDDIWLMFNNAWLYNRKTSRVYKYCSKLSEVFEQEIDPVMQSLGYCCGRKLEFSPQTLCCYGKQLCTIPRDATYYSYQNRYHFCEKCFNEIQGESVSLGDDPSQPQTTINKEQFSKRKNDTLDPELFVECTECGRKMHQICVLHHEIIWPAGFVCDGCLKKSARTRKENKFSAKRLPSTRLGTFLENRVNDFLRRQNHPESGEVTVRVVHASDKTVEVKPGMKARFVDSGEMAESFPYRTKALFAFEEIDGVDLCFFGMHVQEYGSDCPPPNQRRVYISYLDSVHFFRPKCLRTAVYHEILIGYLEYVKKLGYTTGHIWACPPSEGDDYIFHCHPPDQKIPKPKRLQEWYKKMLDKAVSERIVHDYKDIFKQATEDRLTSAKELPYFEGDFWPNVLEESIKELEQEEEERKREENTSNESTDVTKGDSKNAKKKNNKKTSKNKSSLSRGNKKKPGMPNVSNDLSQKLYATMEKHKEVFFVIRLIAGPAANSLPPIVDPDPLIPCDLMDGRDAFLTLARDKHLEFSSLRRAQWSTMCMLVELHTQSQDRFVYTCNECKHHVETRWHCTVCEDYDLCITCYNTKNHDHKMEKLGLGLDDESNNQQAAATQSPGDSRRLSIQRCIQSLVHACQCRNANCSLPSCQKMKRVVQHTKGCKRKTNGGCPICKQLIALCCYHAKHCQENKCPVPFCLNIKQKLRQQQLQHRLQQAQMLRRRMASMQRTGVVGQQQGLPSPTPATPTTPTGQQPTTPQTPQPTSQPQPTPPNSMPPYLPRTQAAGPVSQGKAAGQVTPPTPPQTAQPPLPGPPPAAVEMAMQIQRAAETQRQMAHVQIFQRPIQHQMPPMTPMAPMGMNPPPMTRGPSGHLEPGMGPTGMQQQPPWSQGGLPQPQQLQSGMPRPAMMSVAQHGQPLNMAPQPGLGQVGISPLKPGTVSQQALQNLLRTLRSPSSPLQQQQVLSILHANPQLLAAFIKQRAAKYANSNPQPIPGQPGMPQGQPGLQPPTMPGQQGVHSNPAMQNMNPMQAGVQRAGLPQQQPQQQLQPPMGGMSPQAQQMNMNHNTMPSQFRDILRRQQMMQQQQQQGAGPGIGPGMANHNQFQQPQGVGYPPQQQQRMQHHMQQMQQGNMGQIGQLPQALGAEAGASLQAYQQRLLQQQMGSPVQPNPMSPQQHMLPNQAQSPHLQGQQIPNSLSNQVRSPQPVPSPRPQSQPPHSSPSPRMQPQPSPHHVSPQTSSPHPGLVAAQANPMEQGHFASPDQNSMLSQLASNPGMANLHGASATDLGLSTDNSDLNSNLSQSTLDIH

Legend:
c-Myc = c-Myc (UniProt P01106); assay: co-IP; lysates (1-2 mg) of 293T cells transfected with DOT1L and/or c-Myc constructs, in RIPA buffer (50 mM Tris pH 7.4, 150 mM NaCl, 1 mM EDTA, 1% NP-40, 0.25% sodium deoxycholate); antibody (1 ug) overnight at 4 °C, protein A or G-agarose 2 h at 4 °C, washed with ice-cold PBS; immunoblotting
GST-c-Myc = GST-c-Myc (UniProt P01106); assay: pull-down; GST-c-Myc (Abnova) held by anti-c-Myc antibody on protein A-agarose beads, reacted with lysates of 293T cells transfected with pCI-neo-DOT1L or empty vector; bound DOT1L detected by immunoblotting; only the target purified
[1] = target: Disruptor of telomeric silencing-1-like (DOT1L) (human) (UniProt Q8TEK3); assay: co-IP; lysates (1-2 mg) of 293T cells transfected with DOT1L and/or c-Myc constructs, in RIPA buffer (50 mM Tris pH 7.4, 150 mM NaCl, 1 mM EDTA, 1% NP-40, 0.25% sodium deoxycholate); antibody (1 ug) overnight at 4 °C, protein A or G-agarose 2 h at 4 °C, washed with ice-cold PBS; immunoblotting

| Substance | binding (c-Myc) | binding (GST-c-Myc) | binding [1] |
| --- | --- | --- | --- |
| Disruptor of telomeric silencing-1-like (DOT1L) (from UniProt Q8TEK3 1-1537) (enzyme) | binds | binds | – |
| p300 acetyltransferase (from UniProt Q09472 1-2414) (enzyme) | binds | – | binds |
